Experimental data published in publication PMC10163288.
Some of the results follow.

B1: il10ra_site1_normal_mot_3af0db62db2b275566dae2e03bf881fa_0001_000000003_0001_37_50_H_._HHH_b2_08305_0001_0000500051_0000001_0_af2pred_0001 (protein)
chain: SSSSDVEEEVKELLAEAFQIRDPEERKEVLEQAERLAEENNDPRLKVLVKAAKFIIKAAFSSSSS
B2: il10ra_site1_normal_mot_HHH_b2_06054_000000214_0001_39_53_H_._HHH_b1_06319_0001_0000100007_0000001_0_af2pred_0001 (protein)
chain: SSSSSEEREEVEELFEEAERLLEEGDYRRVSHLIRRMAELARKGDDPEAVRLVAEITRKLFSSSS
B3: il10ra_site1_sap_28_mot_HHH_b1_00992_000000182_0001_23_40_H_._HHH_b2_06735_0001_0000200016_0000002_0_0001 (protein)
chain: SSSSSEERLEELVEELEELVERNDLERFLELAVEALRLAFQLGDEEVLRRLWELVREIAGSSSSS
B4: il10ra_site1_normal_mot_HHH_b1_05357_000000034_0001_23_39_H_._HHH_b1_02046_af2_0001_0000500016_0000003_0 (protein)
chain: SSSDEERAEELTKRIEELLERGDDEEAEELLRELAALAARLRDPELSHIVIRLYALLHELKSSSS
B5: il10ra_site1_sap_14_mot_HHH_b2_04275_000000272_0001_20_36_H_._HHH_b2_04661_af2_0001_0000400028_0000002_0_0001_af2pred_0001 (protein)
chain: SSSSSKEERLLRLMRELLELARRLNNEEELRILEHLLKALAEQLNDEEAEELLEELRELLSSSSS
B6: il10ra_site1_normal_mot_HHH_b2_00984_000000042_0001_1_20_H_._HHH_b2_06425_af2_0001_0000400016_0000001_0 (protein)
chain: SSSSDEELKEELEELIEEVRELLERGNFEEASRLAQEILRLIYRLGDQELLQKLWRIIKSGSSSS
B7: il10ra_site1_sap_25_mot_HHH_b2_06864_af2_000000190_0001_1_20_H_._HHH_b2_03106_0001_0000400031_0000001_0_0001 (protein)
chain: SSSSTRELFKLSEEAMELLRKGDDEEARKVLEEARELAEEEGNRLALINLEFVLRDIEKTSSSSS
B8: il10ra_site1_sap_18_mot_HHH_b1_03531_000000273_0001_41_54_H_._HHH_b2_07361_0001_0000200019_0000001_0_0001 (protein)
chain: SSSSSDLEEEVEELLEEARHIEDPEERYKVLKEAIEVASERGDPELFRLIMEFLHQMFQGSSSSS
B9: il10ra_site1_normal_mot_HHH_b1_05185_000000011_0001_22_39_H_._HHH_b2_07913_af2_0001_0000700031_0000001_0 (protein)
chain: SSSSSDEEEEYARLAIHFARALAKQDPEAARLLIRLMISSAEENGDEEAVEELREVLEELSSSSS
B10: il10ra_site1_normal_mot_HHH_b1_02397_af2_000000085_0001_39_57_H_._HHH_b2_04674_0001_0000100007_0000001_0 (protein)
chain: SSSSDEEERQLEKLLEELKELVEEGDHERFARVLRRLLRLAFRLRDEEALQELHELAKLLVSSSS
B11: il10ra_site1_sap_8_mot_HHH_b2_05360_af2_000000051_0001_42_55_H_._2723fefb2504348229f2f56aa7a0cadc_0001_0001_0000100004_0000001_0_0001 (protein)
chain: SSSSSSEEELREEVEELLEEAKQITDWHEAAKVLLEAVRLAIQGQDPELLQRVWEVVKKLSSSSS
B12: il10ra_site1_sap_23_mot_HHH_b2_05323_000000159_0001_1_18_H_._HHH_b1_07636_0001_0000100009_0000001_0_0001 (protein)
chain: SSSSSDEEERLEELLEEVERAIEEGDDELALRLIMEALRIVFQLGDEEALHLLWELAKRLSSSSS
B13: il10ra_site1_sap_18_mot_HHH_b1_03270_000000208_0001_21_37_H_._HHH_b1_05102_af2_0001_0000200006_0000001_0_0001 (protein)
chain: SSSSDEVEERAEELIERIEELIENGDPERALRLIIELLRLAFRNRDEEIMREAWRLAEELKSSSS
B14: il10ra_site1_normal_mot_HHH_b1_04940_000000219_0001_1_18_H_._HHH_b1_08156_0002_0000100002_0000002_0_af2pred_0001 (protein)
chain: SSSSDELERALRRLLQALKHAIELGDEERARLTIKDIEHSARFLKDEEVQRLVEELREELESSSS
B15: il10ra_site1_sap_15_mot_HHH_b2_00984_000000042_0001_1_20_H_._HHH_b2_07448_0001_0000300046_0000002_0_0001 (protein)
chain: PEELIEELAEKAGVPPEEVERVLREIKELLNLPPEQAVKSVRQLSEQEGDPRWALEVAERAARLT
B16: il10ra_site1_sap_23_mot_HHH_b2_08186_000000021_0001_43_56_H_._HHH_b2_02878_af2_0002_0000400016_0000001_0_0001 (protein)
chain: SSSSEEAEELVKEVEEELRRLLEEGNTDEAYRALKEAIEELIELGDPEAAHRLSRLFLELASSSS
B17: il10ra_site1_sap_22_mot_HHH_b2_03434_000000017_0001_1_19_H_._HHH_b1_05537_af2_0001_0000300028_0000001_0_0001_af2pred_0001 (protein)
chain: SSSSDEVREEVERLLEEAEELAKKGNPEEALKLIREAAEIAAQNRDPEALRLVIELARRLFSSSS
B18: il10ra_site1_sap_14_mot_HHH_b1_02815_af2_000000247_0001_3_20_H_._HHH_b2_03543_0001_0000200018_0000001_0_0001_af2pred_0001 (protein)
chain: SSSSSEELEEYEERLEELIERGDKEEFSQLVAEALRLAHELGDEELLKKILELAVKFLKAESSSS
B19: il10ra_site1_normal_mot_HHH_b1_05357_000000034_0001_23_39_H_._HHH_b2_07808_0001_0000100006_0000001_0_af2pred_0001 (protein)
chain: SSSSSDEEVEERIEELLEEAQKIEDREEVTYLLIRAFALANEVNDPELEKEIKKVAKELSSSSSS
B20: il10ra_site1_sap_15_mot_HHH_b1_02420_000000033_0001_20_36_H_._HHH_b2_05519_0001_0000200018_0000001_0_0001_af2pred_0001 (protein)
chain: SSSSSSDIELAARFVAFSAESAGNPEIAEEVRELLEEYQEEGKQEYLQLIVRLSRELLSSSSSSS
B21: il10ra_site1_normal_mot_HHH_b2_06979_000000158_0001_42_57_H_._HHH_b2_06581_af2_0001_0000200012_0000001_0 (protein)
chain: SSSSSEEVQRIVKLLREAAEIEDKEEAEEVVEEALELAEELGNELLRINVEFLLRDLRRGSSSSS
B22: il10ra_site1_normal_mot_HHH_b2_01310_000000089_0001_41_55_H_._HHH_b1_02429_0001_0000600044_0000001_0 (protein)
chain: SSSSDEEEERVEELEEEIRRLIEKGNPEEAVRLVQEIVRFAFRAQDPELLRLARELAREASSSSS
B23: il10ra_site1_normal_mot_HHH_b2_00440_af2_000000075_0001_42_56_H_._HHH_b2_03761_0001_0000500034_0000001_0_af2pred_0001 (protein)
chain: SSSSSEEEVRRRVEELLEEAEETPDPEERIRLLREAAHLASELGDPELQRLVIRLAQELISSSSS
B24: il10ra_site1_normal_mot_HHH_b1_01821_000000158_0001_23_39_H_._HHH_b1_04649_0001_0000100004_0000001_1 (protein)
chain: SSSSSEEEERVEELLEEAKRIDDREKLIEVLLEALRIALEIGNEELLREIWRLFRELIEEVSSSS
B25: il10ra_site1_normal_mot_HHH_b2_03220_af2_000000223_0001_23_40_H_._HHH_b1_08461_0001_0000300052_0000001_0 (protein)
chain: SSSSTEINERIWELLKLVLELRANGNPEEAQEVLEEARELVEEANNELLRFNVELLERDLRSSSS
B26: il10ra_site1_sap_9_mot_cffd2965c37bdde328b01796c783dcd7_0001_1_af2_000000013_0001_37_51_H_._HHH_b2_02076_0001_0000100004_0000002_0_0001_af2pred_0001 (protein)
chain: SSSSDELERAVKILLRAARRARELGDEEVVRRALYFAKWLAEEGNDEELREAVEELERELSSSSS
B27: il10ra_site1_normal_mot_HHH_b1_06789_af2_000000041_0001_1_20_H_._HHH_b2_03753_0001_0000100002_0000002_0_af2pred_dldesign_0_af2pred (protein)
chain: SSSSSAKYYAEQALRAARLLHEAGYLEEARKAADIALQIAKQAGDEELIKKVEDFRRELESSSSS
B28: il10ra_site1_sap_30_mot_HHH_b2_02736_000000092_0001_22_38_H_._HHH_b1_04432_0001_0000100012_0000001_0_0001 (protein)
chain: SSSSDVDRRAYELSRRAAELHSEGDEEEFREVVEEAEQLAEEANNFAILFALEVLKRALESSSSS
B29: il10ra_site1_normal_mot_HHH_b1_05357_000000034_0001_23_39_H_._HHH_b2_07548_0002_0000200008_0000001_1_af2pred_0001 (protein)
chain: SSSSSDEEEEEVEELLEEAKHIEDLRRVSYLMIRAFAIAYRLNDPELERLVKKVAQELNSSSSSS
B30: il10ra_site1_normal_mot_HHH_b1_05357_000000034_0001_23_39_H_._HHH_b2_00663_0001_0000800048_0000001_0_af2pred_0001 (protein)
chain: SSSSSSDEEEVRELLEEAKEVPDPHERSYLLLRAYAVANRANDPELRRLVREVAKKLLHSSSSSS
B31: il10ra_site1_sap_23_mot_HHH_b2_02337_000000026_0001_38_52_H_._HHH_b1_01406_af2_0001_0000300012_0000002_0_0001_af2pred_dldesign_0_af2pred (protein)
chain: SSSSDRAELEAYLDALVAELGLTEEQRAILRLVLDDALAAGLSPERIRELLRTAAEYLAERSSSS
B32: il10ra_site1_normal_mot_HHH_b2_02693_af2_000000213_0001_19_35_H_._HHH_b2_04275_0001_0000300016_0000001_0_af2pred_0001 (protein)
chain: SSSSSSEESEELLEQLEEALRRGDEELIARLVLEIARLAEELNDKELVEELLRLLVEHQSSSSSS
B33: il10ra_site1_normal_mot_HHH_b1_01879_000000050_0001_1_18_H_._HHH_b2_02257_0001_0000300009_0000002_0_af2pred_0001 (protein)
chain: SSSSDEEVEEVVFEAQILAFKLGDEETLRRLAELSVQIKLRGDPRLREEVEELAEEFLEEYSSSS
B34: il10ra_site1_sap_24_mot_HHH_b1_05185_000000011_0001_22_39_H_._HHH_b1_07230_0001_0000300015_0000001_0_0001 (protein)
chain: SSSSDRELSDEAYKVLEEALELMANGNPEEAEELLEELRRLLEENGNRVMLHQVRFLLKALSSSS
B35: il10ra_site1_sap_19_mot_HHH_b2_01205_000000166_0001_1_19_H_._HHH_b1_00924_0001_0000200025_0000001_0_0001_af2pred_0001 (protein)
chain: SSSSSSSEIEEIEEEVRRLAENGNPEEALKLVIKAARELAERGNPEAAARLARLFAELSSSSSSS
B36: il10ra_site1_sap_12_mot_HHH_b1_00814_af2_000000078_0001_43_57_H_._40e86e4e32a25ee6cbb7392bdf050625_0001_1_0001_0000100001_0000001_0_0001 (protein)
chain: SSSSNSVAEVVARAVRAAFQLNDEETLRELWELFKRYIEEGDERYRERLEELLEELEERLSSSSS
B37: il10ra_site1_sap_13_mot_HHH_b1_03314_af2_000000278_0001_42_55_H_._HHH_b2_05627_0001_0000300016_0000001_0_0001 (protein)
chain: SSSSDEEEEELRRLIEELRELLENGNPEEAAEVAQRAARLAHEAHNPELLRELWELFARNFSSSS

Each binder was assayed against il10ra, Q13651 (assay: yeast display titration).

Apparent Kd, inactive:
B1 no binding seen, B2 no binding seen, B3 no binding seen, B4 no binding seen, B5 no binding seen, B6 no binding seen, B7 no binding seen, B8 no binding seen, B9 no binding seen, B10 no binding seen, B11 no binding seen, B12 no binding seen, B13 no binding seen, B14 no binding seen, B15 no binding seen, B16 no binding seen, B17 no binding seen, B18 no binding seen, B19 no binding seen, B20 no binding seen, B21 no binding seen, B22 no binding seen, B23 no binding seen, B24 no binding seen, B25 no binding seen, B26 no binding seen, B27 no binding seen, B28 no binding seen, B29 no binding seen, B30 no binding seen, B31 no binding seen, B32 no binding seen, B33 > 0.512 µM, B34 no binding seen, B35 no binding seen, B36 no binding seen, B37 no binding seen
